In the experiment the test system is HEK293A TEAD-LUC reporter. The experiment is described as follows: TEAD-luciferase reporter activity (YAP activation), robust Z score vs plate; higher = stronger YAP/TEAD activation. The following applies: 24 h.

Some of the results follow. Single values are uncertain here, since repeats match poorly.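 In a drug-repurposing library screen, luminescence reads luciferase driven by eight TEAD-binding elements, stably integrated into human kidney-derived cells. Compounds scoring over five robust Z scores above the plate mean are called hits.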

In the case of `Oc1nc(O)c2nc3ccccc3nc2n1`, the TEAD-luciferase reporter activity was inactive: -0.489 (compound concentration: 200 nM), inactive: 0.457 (compound concentration: 2 uM) and active: 7.45 (compound concentration: 10 uM).

Turning to `COC(=O)C1=C(C)NC(C)=C(C(=O)OC/C=C/c2ccccc2)C1c1cccc([N+](=O)[O-])c1` (stereo not drawn) [Pranidipine], the TEAD-luciferase reporter activity is inactive: -1.04 (compound concentration: 200 nM), inactive: -2.03 (compound concentration: 2 uM) and inactive: 3.02 (compound concentration: 10 uM).

Regarding `CC(C)(C)NCC(O)COc1cc(Cl)ccc1Cl` (stereo not drawn) [cloranolol], the TEAD-luciferase reporter activity runs as follows: (compound concentration: 200 nM) inactive: -1.1; (compound concentration: 2 uM) inactive: -0.282; (compound concentration: 10 uM) inactive: 3.23.

Consider `COc1ccc(CC(=O)N(C)C2CCc3ccccc3C2)cc1` (stereo not drawn), for which the TEAD-luciferase reporter activity (compound concentration: 200 nM) is inactive: -0.0826.

As for `CN(C(=O)C(Cc1ccc(C(=N)NN)cc1)NS(=O)(=O)c1ccc2ccccc2c1)C1CCCC1` (stereo not drawn), the TEAD-luciferase reporter activity (compound concentration: 200 nM) is inactive: -0.296, the TEAD-luciferase reporter activity (compound concentration: 2 uM) is inactive: 0.519 and the TEAD-luciferase reporter activity (compound concentration: 10 uM) was inactive: 1.96.

As for `COc1ccc(C(=O)N2CCN(CCn3c(C(=O)N(C)c4cc(C)cc(C)n4)nc4ccccc43)CC2)cc1OC`, the TEAD-luciferase reporter activity by setting is: (compound concentration: 200 nM) inactive: 0.496; (compound concentration: 2 uM) inactive: -0.488; (compound concentration: 10 uM) inactive: -1.52.

Turning to `O=C(c1ccc(F)cc1)C1CCN(CCn2c(=O)nc3n(c2=O)CCCC3)CC1`, the TEAD-luciferase reporter activity reads like this: (compound concentration: 200 nM) inactive: -1.16; (compound concentration: 2 uM) inactive: -0.22; (compound concentration: 10 uM) inactive: 0.00364.

For `CC[C@H]1OC(=O)C[C@@H](O)[C@H](C)[C@@H](O[C@@H]2O[C@H](C)[C@@H](O[C@H]3C[C@@](C)(O)[C@@H](O)[C@H](C)O3)[C@H](N(C)C)[C@H]2O)[C@@H](CC=O)C[C@@H](C)C(=O)/C=C/C(C)=C/[C@@H]1CO[C@@H]1O[C@H](C)[C@@H](O)[C@@H](OC)[C@H]1OC` [Tylosin], the TEAD-luciferase reporter activity by setting is: (compound concentration: 200 nM) inactive: 0.0947; (compound concentration: 2 uM) inactive: -1.03; (compound concentration: 10 uM) inactive: -1.37.

`Cc1c(N)cccc1Cn1ccc(OCCc2cccs2)cc1=O`: the TEAD-luciferase reporter activity (compound concentration: 200 nM) is inactive: 1.16, the TEAD-luciferase reporter activity (compound concentration: 2 uM) was inactive: 0.488 and the TEAD-luciferase reporter activity (compound concentration: 10 uM) is inactive: 0.0316.

For the molecule `CCCC1O[C@@H]2C[C@H]3[C@@H]4CCC5=CC(=O)C=C[C@]5(C)[C@H]4[C@@H](O)C[C@]3(C)[C@]2(C(=O)COC(=O)c2ccc(CO[N+](=O)[O-])cc2)O1` (stereo partly drawn) [NO-budesonide], the TEAD-luciferase reporter activity was inactive: 0.475 (compound concentration: 200 nM), inactive: 0.825 (compound concentration: 2 uM) and inactive: -0.113 (compound concentration: 10 uM).

On to `CC(C)(O/N=C(\C(=O)N[C@@H]1C(=O)N2C(C(=O)[O-])=C(C[n+]3ccccc3)CS[C@H]12)c1csc(N)n1)C(=O)O` [Ceftazidime hydrate], for which the TEAD-luciferase reporter activity (compound concentration: 200 nM) is inactive: 0.728 and the TEAD-luciferase reporter activity (compound concentration: 10 uM) is inactive: -0.723.

For the molecule `Cc1cc(/C=C/c2ccc3cc(N(C)C)ccc3[n+]2C)c(C)n1-c1ccccc1` [Pyrvinium pamoate], the TEAD-luciferase reporter activity was inactive: -0.673 (compound concentration: 200 nM), inactive: -1.08 (compound concentration: 2 uM) and inactive: 2.01 (compound concentration: 10 uM).

For the molecule `CC(C)(CCCCOCCCCC(C)(C)C(=O)O)C(=O)O`, the TEAD-luciferase reporter activity was inactive: -0.574 (compound concentration: 200 nM), inactive: -0.604 (compound concentration: 2 uM) and inactive: 2.43 (compound concentration: 10 uM).

Regarding `CCC1=C(C)CN(C(=O)NCCc2ccc(S(=O)(=O)NC(=O)N[C@H]3CC[C@H](C)CC3)cc2)C1=O` [glimepiride], where the note is “compound concentration: 2 uM”, the TEAD-luciferase reporter activity was inactive: -1.53.

With `CCC1=C(C)CN(C(=O)NCCc2ccc(S(=O)(=O)NC(=O)N[C@H]3CC[C@H](C)CC3)cc2)C1=O`, the TEAD-luciferase reporter activity runs as follows: (compound concentration: 200 nM) inactive: -2.17; (compound concentration: 10 uM) inactive: -0.57.

For the molecule `CCCC(=O)O[C@]1(C(=O)CO)CC[C@H]2[C@@H]3CCC4=CC(=O)CC[C@]4(C)[C@H]3[C@@H](O)C[C@@]21C` [hydrocortisone-17-butyrate], the TEAD-luciferase reporter activity is, setting by setting: (compound concentration: 200 nM) inactive: -1.83; (compound concentration: 2 uM) inactive: 1.37; (compound concentration: 10 uM) inactive: 1.48.

`N=C(N)NC(=N)NCCc1ccccc1`: the TEAD-luciferase reporter activity (compound concentration: 200 nM) was inactive: 1.45, the TEAD-luciferase reporter activity (compound concentration: 2 uM) was inactive: 2.24 and the TEAD-luciferase reporter activity (compound concentration: 10 uM) is inactive: 1.18.

As for `CCCNC(=O)NS(=O)(=O)c1ccc(Cl)cc1`, the TEAD-luciferase reporter activity (compound concentration: 200 nM) is inactive: -0.131 and the TEAD-luciferase reporter activity (compound concentration: 10 uM) is inactive: 0.0151.

In the case of `CCCNC(=O)NS(=O)(=O)c1ccc(Cl)cc1` [Chlorpropamide], the TEAD-luciferase reporter activity (compound concentration: 2 uM) is inactive: -1.87.

Turning to `c1cc(OCCN2CCCCC2)cc(-c2n[nH]c3ccc(-c4ncn[nH]4)cc23)c1`, the TEAD-luciferase reporter activity by setting is: (compound concentration: 200 nM) inactive: 0.749; (compound concentration: 2 uM) inactive: 2.09; (compound concentration: 10 uM) inactive: 3.18.

For the molecule `NS(=O)(=O)c1cc(C2(O)NC(=O)c3ccccc32)ccc1Cl` (stereo not drawn) [Chlorthalidone], the TEAD-luciferase reporter activity is inactive: 0.154 (compound concentration: 200 nM) and inactive: 1.79 (compound concentration: 10 uM).

For `NS(=O)(=O)c1cc(C2(O)NC(=O)c3ccccc32)ccc1Cl` (stereo not drawn) [Chlortalidone], the TEAD-luciferase reporter activity (compound concentration: 2 uM) is inactive: -1.31.

`CCCC(=O)O[C@]1(C(=O)CCl)[C@@H](C)C[C@H]2[C@@H]3CCC4=CC(=O)C=C[C@]4(C)[C@@]3(F)C(=O)C[C@@]21C` [clobetasone butyrate]: the TEAD-luciferase reporter activity was inactive: -0.896 (compound concentration: 200 nM), inactive: 1.09 (compound concentration: 2 uM) and inactive: -0.179 (compound concentration: 10 uM).

`Cc1nc2ccccc2n1C1CC2CCC(C1)N2CCC1(c2cccc(F)c2)CCN(C(=O)c2cc(S(=O)(=O)NC(C)(C)C)c(F)cc2Cl)CC1` (stereo not drawn): the TEAD-luciferase reporter activity by setting is: (compound concentration: 200 nM) inactive: 0.653; (compound concentration: 2 uM) inactive: -0.911; (compound concentration: 10 uM) inactive: 2.65.

Regarding `CCCCN1CC[C@H](c2ccc(N(C)C)cc2)[C@@H](COc2ccc(C(F)(F)F)cc2)C1`, the TEAD-luciferase reporter activity was inactive: 0.00913 (compound concentration: 200 nM), inactive: -1.84 (compound concentration: 2 uM) and inactive: -2.6 (compound concentration: 10 uM).

The values above are taken from the supplement of paper PMC10735217.
